Results deposited as PubChem BioAssay AID720505 (Drosophila RNAi Screening Center, 2013).

Aim: 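Genes needed for store-operated calcium entry in fly cells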 (primary screen)
System: Drosophila S2R+ cells
Knock-down reagent: long dsRNA against Drosophila genes
Challenge: thapsigargin (2 µM) in calcium-free buffer to empty internal stores, then 2 mM calcium added back
Measurement: 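Stores emptied by 2 µM thapsigargin without calcium, then 2 mM calcium re-added; fluo-4 fluorescence followed by FLIPR in 384-well plates, per-well averaged endpoint, raw; two screen passes, some wells retested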
Scale: calcium signal: higher = more calcium entry after store depletion
Hit rule: 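About 1500 genes called as lowering calcium entry, by varying amounts, judged against per-plate control wells with STIM1 as positive and Rho1 as negative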
Calls: active = called as lowering calcium entry; inactive = not called
The deposit covers about 20,000 reagents; this is an unselected part of those that have a named target and a result. In the full data, about 2,100 (10%) are marked active. 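Raw plate signals without normalisation; calls rest on control-based scores that were not deposited; replicate 2 separates called from uncalled poorly.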 Not stated in the record: the amount of reagent, the time to read-out.

CG12376 (GeneID 35857) [DRSC06144] → calcium signal, replicate 1: 200; calcium signal, replicate 2: 149; outcome: inactive
yata (GeneID 43508) [DRSC15408] → calcium signal, replicate 1: 200; calcium signal, replicate 2: 167; outcome: inactive
Gsc (GeneID 33240) [DRSC00755] → calcium signal, replicate 1: 126; calcium signal, replicate 2: 136; outcome: inactive
CG32631 (GeneID 32311) [DRSC19768] → calcium signal, replicate 1: 131; calcium signal, replicate 2: 96.2; outcome: inactive
Sf3b3 (GeneID 38093) [DRSC08370] → calcium signal, replicate 1: 76.8; calcium signal, replicate 2: 83.3; outcome: active
scat (GeneID 47942) [DRSC02722] → calcium signal, replicate 1: 75.6; calcium signal, replicate 2: 98.2; outcome: inactive
eIF6 (GeneID 37776) [DRSC04674] → calcium signal, replicate 1: 73.7; calcium signal, replicate 2: 73.4; outcome: inactive
lbl (GeneID 42541) [DRSC16986] → calcium signal, replicate 1: 155; calcium signal, replicate 2: 90; outcome: inactive
Fs(2)Ket (GeneID 35336) [DRSC03328] → calcium signal, replicate 1: 51.4; calcium signal, replicate 2: 59.2; outcome: active
Yip1d1 (GeneID 34696) [DRSC02166] → calcium signal, replicate 1: 106; calcium signal, replicate 2: 150; outcome: inactive
fand (GeneID 36514) [DRSC06967] → calcium signal, replicate 1: 109; calcium signal, replicate 2: 88.5; outcome: inactive
S2P (GeneID 36262) [DRSC07311] → calcium signal, replicate 1: 99.2; calcium signal, replicate 2: 165; outcome: inactive
CG31709 (GeneID 261620) [DRSC01081] → calcium signal, replicate 1: 122; calcium signal, replicate 2: 95.1; outcome: inactive
rut (GeneID 32406) [DRSC20367] → calcium signal, replicate 1: 90.9; calcium signal, replicate 2: 136; outcome: inactive
rut (GeneID 32406) [DRSC22976] → calcium signal, replicate 1: 96.4; calcium signal, replicate 2: 68.8; outcome: inactive
Las (GeneID 40259) [DRSC11772] → calcium signal, replicate 1: 61.3; calcium signal, replicate 2: 119; outcome: active
Su(fu) (GeneID 41565) [DRSC16871] → calcium signal, replicate 1: 104; calcium signal, replicate 2: 163; outcome: inactive
Cbp53E (GeneID 36905) [DRSC07356] → calcium signal, replicate 1: 120; calcium signal, replicate 2: 143; outcome: inactive
corolla (GeneID 32739) [DRSC20102] → calcium signal, replicate 1: 163; calcium signal, replicate 2: 99.1; outcome: inactive
mthl13 (GeneID 246395) [DRSC05238] → calcium signal, replicate 1: 78.6; calcium signal, replicate 2: 139; outcome: inactive
ct (GeneID 44540) [DRSC18757] → calcium signal, replicate 1: 66.8; calcium signal, replicate 2: 226; outcome: active
CG42789 (GeneID 10178793) [DRSC13793] → calcium signal, replicate 1: 63.5; calcium signal, replicate 2: 95.2; outcome: inactive
CG5167 (GeneID 41521) [DRSC15728] → calcium signal, replicate 1: 195; calcium signal, replicate 2: 122; outcome: inactive
CG31751 (GeneID 35118) [DRSC02464] → calcium signal, replicate 1: 62.4; calcium signal, replicate 2: 123; outcome: inactive
CG31751 (GeneID 35118) [DRSC02465] → calcium signal, replicate 1: 129; calcium signal, replicate 2: 74.6; outcome: inactive
CG9643 (GeneID 33504) [DRSC00722] → calcium signal, replicate 1: 114; calcium signal, replicate 2: 92.1; outcome: inactive
Spt (GeneID 35889) [DRSC07123] → calcium signal, replicate 1: 70; calcium signal, replicate 2: 110; outcome: inactive
bw (GeneID 37724) [DRSC04005] → calcium signal, replicate 1: 83.6; calcium signal, replicate 2: 80.8; outcome: inactive
bw (GeneID 37724) [DRSC04677] → calcium signal, replicate 1: 156; calcium signal, replicate 2: 86; outcome: inactive

A run of entries of the results above, as a working copy:
fand (GeneID 36514) [DRSC06967] → calcium signal, replicate 1: 109; calcium signal, replicate 2: 88.5; outcome: inactive
S2P (GeneID 36262) [DRSC07311] → calcium signal, replicate 1: 99.2; calcium signal, replicate 2: 165; outcome: inactive
CG31709 (GeneID 261620) [DRSC01081] → calcium signal, replicate 1: 122; calcium signal, replicate 2: 95.1; outcome: inactive
rut (GeneID 32406) [DRSC20367] → calcium signal, replicate 1: 90.9; calcium signal, replicate 2: 136; outcome: inactive
